Laboratory results taken from patent US20150174144A1, “TETRACYCLINE COMPOUNDS FOR TREATING NEURODEGENERATIVE DISORDERS” (PARATEK PHARMACEUTICALS, INC., priority 2012, published 2015).
At least one structure is not confirmed: it was looked up by name or label, or the drawing left a doubt.

Tested on: bacterial ribosome
Experiment: Transcription/translation (TnT) in vitro assay of bacterial protein synthesis
Type: biochemical
Description: The antibacterial activity of Compound 1 was evaluated against comparator compounds minocycline and doxycycline. Test compounds are considered to have antibacterial activity if they inhibit bacterial growth at test concentrations below 4 μM. […] Further, mechanistic evidence of their antibacterial activity was evaluated using the transcription/translation (TnT) in vitro assay which directly measures the bacterial cellular efficiency of protein synthesis with and without test compounds present.

Structure (SMILES): CN(C)c1ccc(O)c2c1C[C@H]1C[C@H]3[C@H](N(C)C)C(O)=C(C(N)=O)C(=O)[C@@]3(O)C(O)=C1C2=O [Minocycline, minocycline]
- Protein Synthesis Inhibition (IC50): 1.9 µg/mL

Structure (SMILES): C[C@H]1c2cccc(O)c2C(=O)C2=C(O)[C@]3(O)C(=O)C(C(N)=O)=C(O)[C@@H](N(C)C)[C@@H]3[C@@H](O)[C@@H]21 [Doxycycline, doxycycline]
- Protein Synthesis Inhibition (IC50): 5.4 µg/mL
